Measurements: PubChem BioAssay AID248 (DTP/NCI, 2004)
The list is a part of this screen's results and no random one: it is rich in T/C values a quarter to a half above the control, in often repeated tests (any T/C) and in doses without a T/C. Further doses and runs are listed elsewhere. T/C: endpoint of the treated group in % of that of the vehicle group. Some entries give survivors of the animals treated and no T/C: the source holds a T/C of zero for them, seemingly a mark for toxic or unscored doses. Some doses without a T/C left all or most animals alive at the check, yet need not have been tolerated: the source hardly ever lists a survival T/C far under the control, and the zero likely stands for such cases as well. Survivors were counted at the toxicity check, usually on the fifth day, unless a day is given; later deaths do not show. Schedules are NCI's codes, read here as Q, the interval in days (D) or hours (H), X, the number of doses. Some schedules carry Z or #; the key to these is not given. Where survival is the endpoint, the PubChem record calls one and a half times the control and up active, and a quarter to a half above the control has no call in these data; cut-offs in other NCI protocols can differ. Some doses were run more than once; the values are given in rising order. Some T/C values carry the count of animals alive at the toxicity check (mostly the fifth day); where none is given, no animal had died by that day.

System: L1210 leukemia ip in BDF1 mice, survival T/C
Assay: NCI In Vivo Anticancer Drug Screen. Data for tumor model L1210 Leukemia (intraperitoneal) in B6D2F1 (BDF1) mice
Settings: T/C endpoint: mean survival time, higher T/C = longer survival
[1] = dose: 100.0 mg/kg/injection, schedule: Q04DX003 (ip), vehicle: Klucel (hydroxypropylcellulose) (HPC)
[2] = dose: 400.0 mg/kg/injection, schedule: Q04DX003 (ip), vehicle: Klucel (hydroxypropylcellulose) (HPC)
[3] = dose: 400.0 mg/kg/injection, schedule: Q01DX001 (ip), vehicle: carboxymethylcellulose (CMC)
[4] = dose: 300.0 mg/kg/injection, schedule: Q01DX001 (ip), vehicle: saline
[5] = dose: 200.0 mg/kg/injection, schedule: Q01DX001 (ip), vehicle: Klucel (hydroxypropylcellulose) (HPC)
[6] = dose: 200.0 mg/kg/injection, schedule: Q01DX Z (ip), vehicle: saline
[7] = dose: 150.0 mg/kg/injection, schedule: Q01DX001 (ip), vehicle: carboxymethylcellulose (CMC)
[8] = dose: 300.0 mg/kg/injection, schedule: Q01DX001 (ip), vehicle: carboxymethylcellulose (CMC)

For CCOCc1c(COc2ccc(Br)cc2)n(C)c2ccccc12, the survivor count (dose: 100.0 mg/kg/injection, schedule: Q01DX009 (ip), vehicle: saline with Tween-80) was 3 of 3.
For c1ccc(CC[P+](c2ccccc2)(c2ccccc2)c2ccccc2)cc1, the survivor count (dose: 6.25 mg/kg/injection, schedule: Q01DX009 (ip), vehicle: Klucel (hydroxypropylcellulose) (HPC)) was 3 of 6, the survivor count (dose: 12.5 mg/kg/injection, schedule: Q01DX009 (ip), vehicle: Klucel (hydroxypropylcellulose) (HPC)) was 1 of 6 and the survivor count (dose: 25.0 mg/kg/injection, schedule: Q01DX009 (ip), vehicle: Klucel (hydroxypropylcellulose) (HPC)) was 1 of 6. For the same compound, the survivor count (dose: 50.0 mg/kg/injection, schedule: Q04DX003 (ip), vehicle: Klucel (hydroxypropylcellulose) (HPC)) was 0 of 6, the survivor count [1] was 3 of 6 and the survivor count (dose: 200.0 mg/kg/injection, schedule: Q04DX003 (ip), vehicle: Klucel (hydroxypropylcellulose) (HPC)) was 0 of 6. The survivor count [2] was 0 of 6.
O=[N+]([O-])c1ccc2conc2c1 was tested, and the survivor count [3] was 2 of 4.
For ClCC[n+]1ccccc1, the survivor count [4] was 0 of 6.
For Cc1cccc(NC(=O)CCl)c1, the survivor count [1] was 6 of 6, the survivor count (dose: 200.0 mg/kg/injection, schedule: Q01DX009 (ip), vehicle: Klucel (hydroxypropylcellulose) (HPC)) was 0 of 6 and the survivor count (dose: 400.0 mg/kg/injection, schedule: Q01DX009 (ip), vehicle: Klucel (hydroxypropylcellulose) (HPC)) was 0 of 6. For the same compound, the survivor count [2] was 6 of 6.
With Clc1ccc(N2CCNCC2)cc1 the survivor count (dose: 150.0 mg/kg/injection, schedule: Q01DX001 (ip), vehicle: saline) was 2 of 6 and the survivor count [4] was 0 of 6.
In the case of O=NN(CCCl)C(=O)NC1CCC(Cl)CC1 (stereo unspecified), the T/C (dose: 18.0 mg/kg/injection, schedule: Q01DX001 (ip), vehicle: Klucel (hydroxypropylcellulose) (HPC)) is reported as 147 % of control, the survivor count [5] is reported as 10 of 10 and the survivor count (dose: 300.0 mg/kg/injection, schedule: Q01DX001 (ip), vehicle: Klucel (hydroxypropylcellulose) (HPC)) is reported as 4 of 10.
In the case of O=N[O-].O=N[O-].O=N[O-].O=N[O-].O=N[O-].O=N[O-].[Ni], the T/C (dose: 100.0 mg/kg/injection, schedule: Q04DX002 (ip), vehicle: saline) is reported as 125 % of control, the survivor count (dose: 200.0 mg/kg/injection, schedule: Q04DX002 (ip), vehicle: saline) is reported as 1 of 3 and the survivor count (dose: 400.0 mg/kg/injection, schedule: Q04DX002 (ip), vehicle: saline) is reported as 0 of 3.
In the case of C=CCSc1ncnc2c1ncn2C1OC(CO)C(O)C1O (stereo unspecified), the T/C (dose: 50.0 mg/kg/injection, schedule: Q01DX Z (ip), vehicle: saline) is reported as 133 and 135 % of control, the T/C (dose: 58.0 mg/kg/injection, schedule: Q01DX009 (ip), vehicle: carboxymethylcellulose (CMC)) is reported as 125 % of control and the T/C (dose: 67.0 mg/kg/injection, schedule: Q01DX Z (ip), vehicle: saline) is reported as 136 % of control. For the same compound, the T/C (dose: 88.0 mg/kg/injection, schedule: Q01DX009 (ip), vehicle: carboxymethylcellulose (CMC)) was 131 % of control [5 of 6 alive], the T/C (dose: 100.0 mg/kg/injection, schedule: Q01DX Z (ip), vehicle: saline) was 133 % of control [4 of 6 alive] and the T/C (dose: 101.0 mg/kg/injection, schedule: Q01DX Z (ip), vehicle: saline) was 145 % of control. The T/C (dose: 133.0 mg/kg/injection, schedule: Q01DX009 (ip), vehicle: carboxymethylcellulose (CMC)) was 134 % of control, the T/C (dose: 177.0 mg/kg/injection, schedule: Q01DX001 (ip), vehicle: carboxymethylcellulose (CMC)) was 134 and 138 % of control and the T/C (dose: 200.0 mg/kg/injection, schedule: Q01DX001 (ip), vehicle: carboxymethylcellulose (CMC)) was 129 % of control. The T/C [6] was 132 % of control, the survivor count [6] was 0 of 6 and the T/C (dose: 225.0 mg/kg/injection, schedule: Q01DX Z (ip), vehicle: saline) was 138 % of control. The T/C [3] was 134 % of control, the survivor count [3] was 3 of 6 and the survivor count (dose: 500.0 mg/kg/injection, schedule: Q01DX Z (ip), vehicle: saline) was 0 of 6. The survivor count (dose: 600.0 mg/kg/injection, schedule: Q01DX001 (ip), vehicle: carboxymethylcellulose (CMC)) was 0 of 6.
For CCCCCCCCCCCCC/C=N\N=C(N)N, the survivor count (dose: 240.0 mg/kg/injection, schedule: Q01DX Z (ip), vehicle: saline) was 1 of 6 and the survivor count (dose: 480.0 mg/kg/injection, schedule: Q01DX Z (ip), vehicle: saline) was 0 of 6.
For CCNc1nc(N)nc2n[nH]nc12, the survivor count (dose: 400.0 mg/kg/injection, schedule: Q01DX001 (ip), vehicle: saline with Tween-80) was 0 of 6.
In the case of Cc1ccc2c(ccc(/C=C/c3ccc(O)c4ncccc34)[n+]2C)c1, the T/C (dose: 50.0 mg/kg/injection, schedule: Q01DX009 (ip), vehicle: Klucel (hydroxypropylcellulose) (HPC)) is reported as 126 % of control, the T/C (dose: 75.0 mg/kg/injection, schedule: Q01DX009 (ip), vehicle: Klucel (hydroxypropylcellulose) (HPC)) is reported as 126 % of control and the survivor count (dose: 150.0 mg/kg/injection, schedule: Q01DX009 (ip), vehicle: Klucel (hydroxypropylcellulose) (HPC)) is reported as 2 of 6. The survivor count (dose: 300.0 mg/kg/injection, schedule: Q01DX009 (ip), vehicle: Klucel (hydroxypropylcellulose) (HPC)) was 0 of 6, the survivor count [2] was 1 of 6 and the survivor count (dose: 800.0 mg/kg/injection, schedule: Q04DX003 (ip), vehicle: Klucel (hydroxypropylcellulose) (HPC)) was 0 of 6.
With Nc1ccc2c(ccc3ccc4ccccc4c32)c1 the survivor count [7] was 2 of 6 and the survivor count [8] was 0 of 6.
In the case of CC(C)/C=N/NC(N)=S, the survivor count (dose: 25.0 mg/kg/injection, schedule: Q01DX001 (ip), vehicle: Klucel (hydroxypropylcellulose) (HPC)) is reported as 1 of 6, the survivor count (dose: 50.0 mg/kg/injection, schedule: Q01DX001 (ip), vehicle: Klucel (hydroxypropylcellulose) (HPC)) is reported as 0 of 6 and the survivor count (dose: 100.0 mg/kg/injection, schedule: Q01DX001 (ip), vehicle: Klucel (hydroxypropylcellulose) (HPC)) is reported as 1 of 6. For the same compound, the survivor count [5] was 1 of 6 and the survivor count (dose: 400.0 mg/kg/injection, schedule: Q01DX001 (ip), vehicle: Klucel (hydroxypropylcellulose) (HPC)) was 0 of 6.
CCCCCCOc1ccc(CC(N)C(=O)O)cc1N(CCCl)CCCl (stereo unspecified) was tested, and the T/C (dose: 3.7 mg/kg/injection, schedule: Q01DX009 (ip), vehicle: carboxymethylcellulose (CMC)) was 129 % of control, the T/C (dose: 5.6 mg/kg/injection, schedule: Q01DX009 (ip), vehicle: carboxymethylcellulose (CMC)) was 146 % of control [5 of 6 alive] and the T/C (dose: 6.6 mg/kg/injection, schedule: Q01DX009 (ip), vehicle: carboxymethylcellulose (CMC)) was 127 % of control. The T/C (dose: 8.5 mg/kg/injection, schedule: Q01DX009 (ip), vehicle: carboxymethylcellulose (CMC)) was 132 and 147 % of control, the T/C (dose: 10.0 mg/kg/injection, schedule: Q01DX009 (ip), vehicle: carboxymethylcellulose (CMC)) was 127 % of control and the T/C (dose: 13.0 mg/kg/injection, schedule: Q01DX009 (ip), vehicle: carboxymethylcellulose (CMC)) was 143 % of control. For the same compound, the T/C (dose: 15.0 mg/kg/injection, schedule: Q01DX001 (ip), vehicle: carboxymethylcellulose (CMC)) was 136 % of control, the T/C (dose: 20.0 mg/kg/injection, schedule: Q01DX009 (ip), vehicle: carboxymethylcellulose (CMC)) was 132 % of control and the T/C (dose: 30.0 mg/kg/injection, schedule: Q01DX001 (ip), vehicle: Klucel (hydroxypropylcellulose) (HPC)) was 142 % of control. The T/C (dose: 30.0 mg/kg/injection, schedule: Q01DX001 (ip), vehicle: carboxymethylcellulose (CMC)) was 126 % of control [4 of 6 alive], the survivor count (dose: 30.0 mg/kg/injection, schedule: Q01DX009 (ip), vehicle: carboxymethylcellulose (CMC)) was 3 of 6 and the T/C (dose: 45.0 mg/kg/injection, schedule: Q01DX001 (ip), vehicle: Klucel (hydroxypropylcellulose) (HPC)) was 138 % of control [4 of 5 alive]. For the same compound, the survivor count (dose: 60.0 mg/kg/injection, schedule: Q01DX001 (ip), vehicle: carboxymethylcellulose (CMC)) was 0 of 6, the T/C (dose: 68.0 mg/kg/injection, schedule: Q01DX001 (ip), vehicle: Klucel (hydroxypropylcellulose) (HPC)) was 132 % of control and the survivor count (dose: 75.0 mg/kg/injection, schedule: Q01DX001 (ip), vehicle: carboxymethylcellulose (CMC)) was 1 of 6. For the same compound, the survivor count [7] was 0 of 6 and the survivor count [8] was 0 of 6.
